These are yes or no findings as the source states them, for the method shown. Binding seen in cells or lysates may run through a third protein. These calls come from enrichment with a bait or labelling near it, and not all partners need be listed. Tags and fused reporters may be left off the sequences shown.
Biological target: T1, ADIPOR2‐HA (human (cDNA from HEK‐293T cells)) (UniProt Q86V24)
T1 sequence: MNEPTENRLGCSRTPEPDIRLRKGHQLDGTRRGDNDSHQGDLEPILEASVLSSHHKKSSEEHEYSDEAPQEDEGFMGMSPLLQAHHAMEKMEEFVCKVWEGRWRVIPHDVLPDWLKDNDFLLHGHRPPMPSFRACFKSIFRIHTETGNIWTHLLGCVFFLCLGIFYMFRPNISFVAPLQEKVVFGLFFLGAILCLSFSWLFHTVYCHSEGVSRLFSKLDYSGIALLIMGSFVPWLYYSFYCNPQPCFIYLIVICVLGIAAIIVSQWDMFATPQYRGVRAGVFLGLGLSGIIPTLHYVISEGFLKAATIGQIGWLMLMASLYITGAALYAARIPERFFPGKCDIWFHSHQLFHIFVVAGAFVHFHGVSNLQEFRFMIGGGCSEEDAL
Test: affinity purification with mass spectrometry; ADIPOR2‐HA stably expressed in HEK‐293T cells, HA‐affinity purified, partners identified by tandem mass spectrometry; control: cells with empty vector

binding: binds
B1: endogenous RNF145 (enzyme, UniProt Q96MT1 1-663)
chain: MAAKEKLEAVLNVALRVPSIMLLDVLYRWDVSSFFQQIQRSSLSNNPLFQYKYLALNMHYVGYILSVVLLTLPRQHLVQLYLYFLTALLLYAGHQISRDYVRSELEFAYEGPMYLEPLSMNRFTTALIGQLVVCTLCSCVMKTKQIWLFSAHMLPLLARLCLVPLETIVIINKFAMIFTGLEVLYFLGSNLLVPYNLAKSAYRELVQVVEVYGLLALGMSLWNQLVVPVLFMVFWLVLFALQIYSYFSTRDQPASRERLLFLFLTSIAECCSTPYSLLGLVFTVSFVALGVLTLCKFYLQGYRAFMNDPAMNRGMTEGVTLLILAVQTGLIELQVVHRAFLLSIILFIVVASILQSMLEIADPIVLALGASRDKSLWKHFRAVSLCLFLLVFPAYMAYMICQFFHMDFWLLIIISSSILTSLQVLGTLFIYVLFMVEEFRKEPVENMDDVIYYVNGTYRLLEFLVALCVVAYGVSETIFGEWTVMGSMIIFIHSYYNVWLRAQLGWKSFLLRRDAVNKIKSLPIATKEQLEKHNDICAICYQDMKSAVITPCSHFFHAGCLKKWLYVQETCPLCHCHLKNSSQLPGLGTEPVLQPHAGAEQNVMFQEGTEPPGQEHTPGTRIQEGSRDNNEYIARRPDNQEGAFDPKEYPHSAKDEAHPVESA

— paper PMC9531299
